Some entries share one result that the patent states for a list of compounds.
System: LPS stimulated TNF-α production in THP-1 cells
Experiment: Cellular Assay: Inhibition of LPS Stimulated TNF-α Production in THP-1 Cells
Type: cell-based, human
Details: times more potent than analog D

| SMILES | potency relative to corresponding non-substituted analog D |
| --- | --- |
| Cc1ccc(C(=O)N[C@@H]2CON(CCO)C2=O)cc1-n1cnc(OCc2ccc(F)cc2F)c(Cl)c1=O [Example 2, 3-[5-Chloro-4-(2,4-difluoro-benzyloxy)-6-oxo-6H-pyrimidin-1-yl]-N-[(R)-2-(2-hydroxy-ethyl)-3-oxo-isoxazolidin-4-yl]-4-methyl-benzamide] | > 10 times |
| Cc1ccc(C(=O)N[C@@H]2CON(C)C2=O)cc1-n1cnc(OCc2ccc(F)cc2F)c(Cl)c1=O [Example 3, 3-[5-Chloro-4-(2,4-difluoro-benzyloxy)-6-oxo-6H-pyrimidin-1-yl]-4-methyl-N-((R)-2-methyl-3-oxo-isoxazolidin-4-yl)-benzamide] | > 10 times |

— patent publication US8198276B2, “Kinase inhibitor compounds” (Xcovery Holding Company LLC, priority 2007, dated 2012)
